# In PubChem BioAssay AID1745850 (National Center for Advancing Translational Sciences (NCATS), 2022):
# The campaign covered roughly 2,100 compounds. About 260 (12%) were called active. The inconclusive results got no clear call from the source; some entries with a clear call stand among them for comparison. Calls follow the shape of the dose curve; as a rule, active = well fitted cell-killing curve with a large enough effect; inconclusive = small, poorly fitted or top-dose-only effect, or effect the other way; inactive = flat fitted curve, though single readings scatter. Potencies of inconclusive entries are doubtful fits and often do not repeat.
# Experiment: Viability Counterscreen for Confirmatory qHTS for Inhibitors of ATXN expression; also: nearly all actives have a fitted effect of over 50% in size
# Conditions: HEK-293 ATXN2-luc cells viability, CellTiter-Fluor, 24 h
# Outline: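 Luminescence read-out (SteadyGlo, 5 min) followed a 30 min Gly-Phe-AFC (25 uM final) viability fluorescence read. ATXN2-luciferase reporter cells were exposed 24 h to a dilution series. Medium-only wells served as the 100% inhibition reference.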
# Potency is read from the fitted curve at half-maximal effect.
row,Compound,Potency
1,N=c1n(CCN2CCCCC2)c2ccccc2n1CC(O)c1ccc(Cl)c(Cl)c1 (centres undefined),active: 25.1 µM
2,COc1ccc(Nc2nc(N3CCCC3)c3ccccc3n2)cc1,active: 35.5 µM
3,Cc1nc(-c2cccc(NC(=O)c3cccc(S(=O)(=O)N4CCCC4)c3)c2)cs1,active: 28.2 µM
4,COc1ccc2cc(C#N)c(N3CCN(C(=O)c4ccccc4C)CC3)nc2c1,"inconclusive: 3.16 µM [cytotoxic, single point]"
5,Cc1ccc(S(=O)(=O)N(C)C)cc1NC(=O)c1cncc(Br)c1,"inconclusive: 14.1 µM [cytotoxic, partial curve]"
6,CC(=O)c1cccc(-c2cnc3c(NC=O)cc(-c4ccccc4F)cn23)c1,"inconclusive: 3.55 µM [cytotoxic, single point]"
7,CN(C)CCNc1cccc2sc3ccc(O)cc3c(=O)c12,active: 22.4 µM
8,O=C(O)CSc1cc(NS(=O)(=O)c2cccc([N+](=O)[O-])c2)c2ccccc2c1O,"inconclusive: 3.55 µM [cytotoxic, single point]"
9,COc1ccc(-c2nc(NC(=O)C3CC(=O)N(c4ccc5c(c4)OCCO5)C3)sc2C)cc1 (centres undefined),"inconclusive: 10 µM [cytotoxic, partial curve]"
10,CN(C)CCCN(C(=O)c1ccc(S(=O)(=O)N(C)Cc2ccccc2)cc1)c1nc2cc3c(cc2s1)OCO3,active: 25.1 µM
11,Oc1ccc(CN2CCC(Cc3ccccc3)CC2)c2cccnc12,"inconclusive: 1.12 µM [cytotoxic, full curve]"
12,COc1ccc(N2CCN(c3ccnc4cc(Cl)ccc34)CC2)cc1,inactive
13,CN(C)c1ccc(Cc2cc3c(O)ccc(O)c3cc(Cc3ccc(N(C)C)cc3)c2=O)cc1,"inconclusive: 3.16 µM [cytotoxic, partial curve]"
14,CCOc1ccc(OCC)c(NC(=O)Nc2ccc3c(c2)N(C)C(=O)CS3)c1,"inconclusive: 39.8 µM [cytotoxic, single point]"
15,CC(=O)Nc1ccc(CNc2nc(NC(C)C)nc3cc(-c4ccccc4)sc23)cc1,active: 25.1 µM
16,O=C(N/N=C\c1c(O)ccc2ccccc12)c1ccc(Cn2cccn2)o1,inactive
17,COc1cc2c3nnc(-c4ccc(F)cc4)c-3cn(Cc3ccccc3F)c2cc1OC,"inconclusive: 7.08 µM [cytotoxic, single point]"
18,CC(=O)Oc1ccc(N(C(C)=O)S(=O)(=O)c2ccc(C)cc2C)c2ccccc12,"inconclusive: 35.5 µM [cytotoxic, single point]"
19,COc1cc(/C=C2\SC(=O)N(CC(=O)Nc3ccccc3F)C2=O)cc(Cl)c1O,inactive

# As entered above:
# Under Potency, COc1ccc2cc(C#N)c(N3CCN(C(=O)c4ccccc4C)CC3)nc2c1 is listed with inconclusive: 3.16 µM [cytotoxic, single point]
# Under Potency, CN(C)CCCN(C(=O)c1ccc(S(=O)(=O)N(C)Cc2ccccc2)cc1)c1nc2cc3c(cc2s1)OCO3 is listed with active: 25.1 µM
